± gives the standard deviation of the averaged measurements. Values are relative to the signal before dosing, not to a vehicle control; the signal also falls without drug.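 Labels refer to human fibroblasts, largely primary: uterine (C12385, HUF), lung (H6013), bone (Hs27A), adrenal (HADF), skin (WS1), plus mammary HMF and breast cancer-associated Hs343T. Cancer lines are basal-like or mesenchymal-like triple-negative breast cancer. The paper counts as hits responses shifting over 3x the replicate standard deviation. The tissue of the other fibroblasts is not given here.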
System: BT20
Experiment: relative JC-1 red fluorescence (viability) vs pre-drug, coculture with fibroblast (fraction); higher = more viable cancer cells
Method: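 JC-1 labelled TNBC cells cocultured 1:1 (1,500 cells each) with CellTrace Violet stained primary or stromal fibroblasts in 384-well plates in FluoroBrite medium, treated with one of 42 anticancer drugs at 0.1, 1, 10 or 100 uM. JC-1 red fluorescence (mitochondrial integrity in cancer cells only) was read by plate reader every 8 h for 72 h. Values are normalised to each well's pre-drug value. The stock of one drug was tenfold lower, so its dose labels may be too high.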

CC(C)C[C@H](NC(=O)[C@H](Cc1ccccc1)NC(=O)c1cnccn1)B(O)O [Bortezomib]
relative JC-1 red fluorescence
Conditions | 8 h | 16 h | 24 h | 32 h | 40 h | 48 h | 56 h | 64 h | 72 h
10 µM, coculture fibroblast: C12385 | 0.8691 ± 0.0015 | 0.808 ± 0.03 | 0.738 ± 0.063 | 0.623 ± 0.095 | 0.521 ± 0.12 | 0.481 ± 0.12 | 0.465 ± 0.11 | 0.449 ± 0.11 | 0.441 ± 0.11
10 µM, coculture fibroblast: H6013 | 0.9074 ± 0.0063 | 0.768 ± 0.02 | 0.701 ± 0.054 | 0.589 ± 0.065 | 0.559 ± 0.068 | 0.548 ± 0.061 | 0.578 ± 0.059 | 0.574 ± 0.064 | 0.577 ± 0.072
10 µM, coculture fibroblast: H6019 | 0.8749 ± 0.0021 | 0.77717 ± 0.00074 | 0.704 ± 0.058 | 0.592 ± 0.11 | 0.516 ± 0.12 | 0.501 ± 0.12 | 0.492 ± 0.12 | 0.5 ± 0.12 | 0.504 ± 0.11
10 µM, coculture fibroblast: H6076 | 0.987 ± 0.0056 | 0.829 ± 0.039 | 0.692 ± 0.027 | 0.65 ± 0.008 | 0.653 ± 0.021 | 0.653 ± 0.03 | 0.669 ± 0.03 | 0.67 ± 0.03 | 0.668 ± 0.033
10 µM, coculture fibroblast: H6231 | 0.859 ± 0.14 | 0.8381 ± 0.0043 | 0.679 ± 0.031 | 0.577 ± 0.082 | 0.538 ± 0.1 | 0.51 ± 0.099 | 0.49 ± 0.097 | 0.479 ± 0.092 | 0.464 ± 0.091
10 µM, coculture fibroblast: HADF | 0.962 ± 0.044 | 0.889 ± 0.062 | 0.792 ± 0.07 | 0.627 ± 0.023 | 0.546 ± 0.031 | 0.489 ± 0.031 | 0.487 ± 0.024 | 0.474 ± 0.018 | 0.448 ± 0.014
10 µM, coculture fibroblast: HCFa | 0.946 ± 0.0028 | 0.902 ± 0.031 | 0.891 ± 0.039 | 0.759 ± 0.031 | 0.675 ± 0.022 | 0.631 ± 0.054 | 0.645 ± 0.063 | 0.639 ± 0.069 | 0.62 ± 0.068
10 µM, coculture fibroblast: HCPF | 0.954 ± 0.037 | 0.842 ± 0.033 | 0.754 ± 0.029 | 0.71 ± 0.056 | 0.718 ± 0.085 | 0.68 ± 0.086 | 0.649 ± 0.086 | 0.646 ± 0.085 | 0.612 ± 0.081
10 µM, coculture fibroblast: HHSteC | 0.8923 ± 0.0082 | 0.845 ± 0.029 | 0.815 ± 0.095 | 0.635 ± 0.069 | 0.543 ± 0.045 | 0.497 ± 0.045 | 0.496 ± 0.043 | 0.48 ± 0.046 | 0.463 ± 0.037
10 µM, coculture fibroblast: HMF | 0.809 ± 0.14 | 0.805 ± 0.03 | 0.633 ± 0.018 | 0.525 ± 0.071 | 0.464 ± 0.14 | 0.43 ± 0.14 | 0.445 ± 0.15 | 0.428 ± 0.15 | 0.416 ± 0.14
10 µM, coculture fibroblast: HPFa | 0.916 ± 0.025 | 0.764 ± 0.07 | 0.87 ± 0.16 | 0.679 ± 0.13 | 0.596 ± 0.11 | 0.546 ± 0.083 | 0.54 ± 0.073 | 0.524 ± 0.058 | 0.503 ± 0.062
10 µM, coculture fibroblast: HUF | 0.865 ± 0.015 | 0.762 ± 0.03 | 0.694 ± 0.043 | 0.543 ± 0.071 | 0.452 ± 0.086 | 0.411 ± 0.086 | 0.4 ± 0.088 | 0.395 ± 0.085 | 0.384 ± 0.083
10 µM, coculture fibroblast: Hs5 | 0.899 ± 0.044 | 0.856 ± 0.058 | 0.6747 ± 0.0062 | 0.574 ± 0.045 | 0.521 ± 0.089 | 0.487 ± 0.098 | 0.486 ± 0.093 | 0.464 ± 0.093 | 0.464 ± 0.091
10 µM, coculture fibroblast: Hs27A | 0.83 ± 0.086 | 0.885 ± 0.15 | 0.8806 ± 0.0043 | 0.724 ± 0.0098 | 0.645 ± 0.0086 | 0.612 ± 0.013 | 0.608 ± 0.0078 | 0.596 ± 0.015 | 0.561 ± 0.013
10 µM, coculture fibroblast: Hs343T | 0.914 ± 0.12 | 0.851 ± 0.014 | 0.657 ± 0.0099 | 0.512 ± 0.01 | 0.404 ± 0.041 | 0.362 ± 0.044 | 0.346 ± 0.045 | 0.345 ± 0.045 | 0.325 ± 0.041
10 µM, coculture fibroblast: WS1 | 0.826 ± 0.0096 | 0.718 ± 0.036 | 0.64 ± 0.052 | 0.546 ± 0.072 | 0.461 ± 0.091 | 0.419 ± 0.093 | 0.406 ± 0.087 | 0.393 ± 0.089 | 0.384 ± 0.093
100 µM, coculture fibroblast: C12385 | 0.897 ± 0.025 | 0.83 ± 0.0093 | 0.705 ± 0.015 | 0.569 ± 0.021 | 0.541 ± 0.021 | 0.497 ± 0.0099 | 0.4447 ± 0.0021 | 0.422 ± 0.0029 | 0.4077 ± 0.0039
100 µM, coculture fibroblast: H6013 | 0.835 ± 0.15 | 0.855 ± 0.053 | 0.758 ± 0.027 | 0.641 ± 0.038 | 0.587 ± 0.059 | 0.57 ± 0.062 | 0.59 ± 0.068 | 0.577 ± 0.08 | 0.567 ± 0.075
100 µM, coculture fibroblast: H6019 | 0.858 ± 0.013 | 0.763 ± 0.026 | 0.715 ± 0.011 | 0.651 ± 0.012 | 0.6309 ± 0.0022 | 0.6222 ± 0.001 | 0.613 ± 0.0073 | 0.617 ± 0.013 | 0.619 ± 0.013
100 µM, coculture fibroblast: H6076 | 0.884 ± 0.11 | 0.831 ± 0.076 | 0.64 ± 0.012 | 0.543 ± 0.029 | 0.495 ± 0.052 | 0.485 ± 0.055 | 0.484 ± 0.045 | 0.487 ± 0.042 | 0.479 ± 0.038
100 µM, coculture fibroblast: H6231 | 0.797 ± 0.047 | 0.938 ± 0.018 | 0.765 ± 0.0097 | 0.681 ± 0.03 | 0.695 ± 0.043 | 0.661 ± 0.04 | 0.639 ± 0.043 | 0.611 ± 0.047 | 0.578 ± 0.047
100 µM, coculture fibroblast: HADF | 0.873 ± 0.07 | 0.838 ± 0.14 | 0.898 ± 0.02 | 0.746 ± 0.0086 | 0.664 ± 0.01 | 0.6279 ± 0.0047 | 0.611 ± 0.017 | 0.588 ± 0.01 | 0.552 ± 0.018
100 µM, coculture fibroblast: HCFa | 0.835 ± 0.14 | 0.841 ± 0.07 | 0.736 ± 0.027 | 0.749 ± 0.23 | 0.664 ± 0.15 | 0.608 ± 0.097 | 0.589 ± 0.073 | 0.573 ± 0.071 | 0.546 ± 0.074
100 µM, coculture fibroblast: HCPF | 0.806 ± 0.027 | 0.932 ± 0.02 | 0.735 ± 0.0086 | 0.6063 ± 0.0059 | 0.546 ± 0.0086 | 0.478 ± 0.026 | 0.452 ± 0.022 | 0.438 ± 0.025 | 0.396 ± 0.026
100 µM, coculture fibroblast: HHSteC | 0.901 ± 0.02 | 0.828 ± 0.032 | 0.858 ± 0.054 | 0.716 ± 0.067 | 0.685 ± 0.046 | 0.6494 ± 0.0064 | 0.6321 ± 0.0047 | 0.6061 ± 0.0021 | 0.5775 ± 0.002
100 µM, coculture fibroblast: HMF | 0.9739 ± 0.0056 | 0.823 ± 0.012 | 0.652 ± 0.026 | 0.557 ± 0.02 | 0.501 ± 0.0068 | 0.454 ± 0.0067 | 0.442 ± 0.0095 | 0.43 ± 0.0052 | 0.409 ± 0.0095
100 µM, coculture fibroblast: HPFa | 0.959 ± 0.026 | 0.867 ± 0.072 | 0.822 ± 0.083 | 0.697 ± 0.085 | 0.666 ± 0.084 | 0.619 ± 0.075 | 0.614 ± 0.088 | 0.597 ± 0.091 | 0.562 ± 0.084
100 µM, coculture fibroblast: HUF | 0.908 ± 0.024 | 0.832 ± 0.061 | 0.738 ± 0.015 | 0.571 ± 0.027 | 0.49 ± 0.056 | 0.451 ± 0.052 | 0.436 ± 0.052 | 0.424 ± 0.058 | 0.413 ± 0.056
100 µM, coculture fibroblast: Hs5 | 0.825 ± 0.015 | 0.86 ± 0.027 | 0.697 ± 0.053 | 0.61 ± 0.027 | 0.561 ± 0.012 | 0.527 ± 0.0066 | 0.507 ± 0.0062 | 0.489 ± 0.0074 | 0.473 ± 0.0078
100 µM, coculture fibroblast: Hs27A | 0.865 ± 0.073 | 0.825 ± 0.059 | 0.897 ± 0.1 | 0.842 ± 0.01 | 0.883 ± 0.15 | 0.836 ± 0.14 | 0.834 ± 0.14 | 0.811 ± 0.15 | 0.773 ± 0.14
100 µM, coculture fibroblast: Hs343T | 0.857 ± 0.067 | 0.83573 ± 0.0008 | 0.676 ± 0.043 | 0.575 ± 0.079 | 0.515 ± 0.12 | 0.481 ± 0.14 | 0.446 ± 0.14 | 0.446 ± 0.14 | 0.424 ± 0.15
100 µM, coculture fibroblast: WS1 | 0.8831 ± 0.0032 | 0.768 ± 0.04 | 0.67 ± 0.044 | 0.535 ± 0.022 | 0.475 ± 0.044 | 0.463 ± 0.044 | 0.428 ± 0.048 | 0.405 ± 0.051 | 0.394 ± 0.044
